Assay results from patent US20240043844A1.
Results are given in words; binding and its absence hold for the method and conditions named. Some entries that bind do so weakly or less than the wild type.

Legend:
human CD71 (human) [1] = biological target: human CD71 (human) (UniProt P02786); experiment: target binding assay using over 6,000 receptors in the proteome array (FIG. 3)
human CD71 (human) [2] = biological target: human CD71 (human) (UniProt P02786); experiment: membrane proteome array, flow cytometry on QT6 cells expressing human membrane proteins

B1: polypeptide comprising the sequence of SEQ ID NO: 509 (human CD71-binding FN3 domain) (designed binder)
chain: MLPAPKNLVVSRVTEDSARLSWTAPDAAFDSFYIAYAEPRPDGEAILLQVPGSCRSYDLTGLKPGTEYSVLIHGVKGGLLSSPLTAIFTT
binding (human CD71 (human) [1]): binds | binding (human CD71 (human) [2]): binds
